No constants are given. Whether binding was seen depends on the method and setting. Binding seen in cells or lysates may run through a third protein. Some binding calls cover weakened binding; strength is not graded here. Each block holds one molecule with its values, some of them ahead of it.
Key:
[1] = target: Ser/Thr protein kinase CK1α (human (endogenous in DLD1, U2OS, A549, TOV-21G)) (UniProt P48729); assay: co-IP; anti-CK1α antibody (sheep, SA527) IP of endogenous CK1α from extracts of asynchronous DLD1, U2OS, A549 and TOV-21G cells; NP-40 lysis buffer, 16 h at 4 °C, protein G Sepharose; IgG IP as negative control; immunoblot
[2] = target: Ser/Thr protein kinase CK1α (human (endogenous in DLD1, U2OS, A549, TOV-21G)), P48729; assay: as above; conditions: remark: other sources report otherwise

The chains behind the UniProt entries cited, without tags or fusion partners.
UniProt P48729: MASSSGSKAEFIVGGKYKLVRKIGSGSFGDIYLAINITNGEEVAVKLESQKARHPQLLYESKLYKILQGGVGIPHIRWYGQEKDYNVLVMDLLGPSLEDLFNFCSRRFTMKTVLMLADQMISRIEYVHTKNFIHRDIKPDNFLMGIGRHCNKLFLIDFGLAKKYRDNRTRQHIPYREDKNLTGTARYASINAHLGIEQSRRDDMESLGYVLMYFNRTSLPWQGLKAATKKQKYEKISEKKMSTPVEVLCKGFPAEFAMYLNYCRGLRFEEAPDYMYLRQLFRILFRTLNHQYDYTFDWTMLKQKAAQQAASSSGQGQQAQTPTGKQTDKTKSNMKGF
UniProt Q8NEG4: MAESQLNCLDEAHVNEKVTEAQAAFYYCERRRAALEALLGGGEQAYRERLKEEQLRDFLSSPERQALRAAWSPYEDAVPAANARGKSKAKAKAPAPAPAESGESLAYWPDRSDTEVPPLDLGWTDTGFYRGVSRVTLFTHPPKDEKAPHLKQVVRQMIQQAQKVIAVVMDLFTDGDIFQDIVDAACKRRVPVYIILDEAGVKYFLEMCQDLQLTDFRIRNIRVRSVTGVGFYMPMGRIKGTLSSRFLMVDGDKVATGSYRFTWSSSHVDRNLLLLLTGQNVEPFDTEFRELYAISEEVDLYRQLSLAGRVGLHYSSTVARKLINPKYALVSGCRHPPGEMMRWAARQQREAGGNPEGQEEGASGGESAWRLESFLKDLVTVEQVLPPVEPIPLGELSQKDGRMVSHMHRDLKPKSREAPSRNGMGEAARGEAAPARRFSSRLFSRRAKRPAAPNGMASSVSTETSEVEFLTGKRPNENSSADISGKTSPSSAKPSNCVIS

binding [1]: binds
Molecule: SACK1F (formerly FAM83F) (from UniProt Q8NEG4 1-500)

binding [1]: binds
B1: SACK1B (formerly FAM83B) (protein, UniProt Q5T0W9 1-1011)
chain: METSSMLSSLNDECKSDNYIEPHYKEWYRVAIDILIEHGLEAYQEFLVQERVSDFLAEEEINYILKNVQKVAQSTAHGTDDSCDDTLSSGTYWPVESDVEAPNLDLGWPYVMPGLLGGTHIDLLFHPPRAHLLTIKETIRKMIKEARKVIALVMDIFTDVDIFKEIVEASTRGVSVYILLDESNFNHFLNMTEKQGCSVQRLRNIRVRTVKGQDYLSKTGAKFHGKMEQKFLLVDCQKVMYGSYSYMWSFEKAHLSMVQIITGQLVESFDEEFRTLYARSCVPSSFAQEESARVKHGKALWENGTYQHSVSSLASVSSQRNLFGRQDKIHKLDSSYFKNRGIYTLNEHDKYNIRSHGYKPHFVPNFNGPNAIRQFQPNQINENWKRHSYAGEQPETVPYLLLNRALNRTNNPPGNWKKPSDSLSVASSSREGYVSHHNTPAQSFANRLAQRKTTNLADRNSNVRRSFNGTDNHIRFLQQRMPTLEHTTKSFLRNWRIESYLNDHSEATPDSNGSALGDRFEGYDNPENLKANALYTHSRLRSSLVFKPTLPEQKEVNSCTTGSSNSTIIGSQGSETPKEVPDTPTNVQHLTDKPLPESIPKLPLQSEAPKMHTLQVPENHSVALNQTTNGHTESNNYIYKTLGVNKQTENLKNQQTENLLKRRSFPLFDNSKANLDPGNSKHYVYSTLTRNRVRQPEKPKEDLLKSSKSMHNVTHNLEEDEEEVTKRNSPSGTTTKSVSIAALLDVNKEESNKELASKKEVKGSPSFLKKGSQKLRSLLSLTPDKKENLSKNKAPAFYRLCSSSDTLVSEGEENQKPKKSDTKVDSSPRRKHSSSSNSQGSIHKSKEDVTVSPSQEINAPPDENKRTPSPGPVESKFLERAGDASAPRFNTEQIQYRDSREINAVVTPERRPTSSPRPTSSELLRSHSTDRRVYSRFEPFCKIESSIQPTSNMPNTSINRPEIKSATMGNSYGRSSPLLNYNTGVYRSYQPNENKFRGFMQKFGNFIHKNK

binding [2]: no binding
B2: SACK1D (formerly FAM83D), Q9H4H8 1-585 (protein)
chain: MALLSEGLDEVPAACLSPCGPPNPTELFSESRRLALEELVAGGPEAFAAFLRRERLARFLNPDEVHAILRAAERPGEEGAAAAAAAEDSFGSSHDCSSGTYFPEQSDLEPPLLELGWPAFYQGAYRGATRVETHFQPRGAGEGGPYGCKDALRQQLRSAREVIAVVMDVFTDIDIFRDLQEICRKQGVAVYILLDQALLSQFLDMCMDLKVHPEQEKLMTVRTITGNIYYARSGTKIIGKVHEKFTLIDGIRVATGSYSFTWTDGKLNSSNLVILSGQVVEHFDLEFRILYAQSKPISPKLLSHFQSSNKFDHLTNRKPQSKELTLGNLLRMRLARLSSTPRKADLDPEMPAEGKAERKPHDCESSTVSEEDYFSSHRDELQSRKAIDAATQTEPGEEMPGLSVSEVGTQTSITTACAGTQTAVITRIASSQTTIWSRSTTTQTDMDENILFPRGTQSTEGSPVSKMSVSRSSSLKSSSSVSSQGSVASSTGSPASIRTTDFHNPGYPKYLGTPHLELYLSDSLRNLNKERQFHFAGIRSRLNHMLAMLSRRTLFTENHLGLHSGNFSRVNLLAVRDVALYPSYQ

binding [1]: binds
B3: SACK1H (formerly FAM83H) (protein, UniProt Q6ZRV2 1-1179)
chain: MARRSQSSSQGDNPLAPGYLPPHYKEYYRLAVDALAEGGSEAYSRFLATEGAPDFLCPEELEHVSRHLRPPQYVTREPPEGSLLDVDMDGSSGTYWPVNSDQAVPELDLGWPLTFGFQGTEVTTLVQPPPPDSPSIKDEARRMIRSAQQVVAVVMDMFTDVDLLSEVLEAAARRVPVYILLDEMNAQHFLDMADKCRVNLQHVDFLRVRTVAGPTYYCRTGKSFKGHVKEKFLLVDCAVVMSGSYSFMWSFEKIHRSLAHVFQGELVSSFDEEFRILFAQSEPLVPSAAALARMDAYALAPYAGAGPLVGVPGVGAPTPFSFPKRAHLLFPPPREEGLGFPSFLDPDRHFLSAFRREEPPRMPGGALEPHAGLRPLSRRLEAEAGPAGELAGARGFFQARHLEMDAFKRHSFATEGAGAVENFAAARQVSRQTFLSHGDDFRFQTSHFHRDQLYQQQYQWDPQLTPARPQGLFEKLRGGRAGFADPDDFTLGAGPRFPELGPDGHQRLDYVPSSASREVRHGSDPAFAPGPRGLEPSGAPRPNLTQRFPCQAAARPGPDPAPEAEPERRGGPEGRAGLRRWRLASYLSGCHGEDGGDDGLPAPMEAEAYEDDVLAPGGRAPAGDLLPSAFRVPAAFPTKVPVPGPGSGGNGPEREGPEEPGLAKQDSFRSRLNPLVQRSSRLRSSLIFSTSQAEGAAGAAAATEKVQLLHKEQTVSETLGPGGEAVRSAASTKVAELLEKYKGPARDPGGGAGAITVASHSKAVVSQAWREEVAAPGAVGGERRSLESCLLDLRDSFAQQLHQEAERQPGAASLTAAQLLDTLGRSGSDRLPSRFLSAQSHSTSPQGLDSPLPLEGSGAHQVLHNESKGSPTSAYPERKGSPTPGFSTRRGSPTTGFIEQKGSPTSAYPERRGSPVPPVPERRSSPVPPVPERRGSLTLTISGESPKAGPAEEGPSGPMEVLRKGSLRLRQLLSPKGERRMEDEGGFPVPQENGQPESPRRLSLGQGDSTEAATEERGPRARLSSATANALYSSNLRDDTKAILEQISAHGQKHRAVPAPSPGPTHNSPELGRPPAAGVLAPDMSDKDKCSAIFRSDSLGTQGRLSRTLPASAEERDRLLRRMESMRKEKRVYSRFEVFCKKEEASSPGAGEGPAEEGTRDSKVGKFVPKILGTFKSKK

Reference: paper PMC13184940
